PubChem BioAssay AID493246 – Drosophila RNAi Screening Center, 2011
The screen tested about 21,000 reagents; this is an unselected part of those that have a named target and a result. Of all reagents, 429 (2%) got an active call. 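Values are raw and not normalised between plates; calls rest on per-plate z-scores that were not deposited.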 A number with no mark means an inactive call. Names joined by + are all predicted targets of the reagent. Not given: the amount of reagent, the time to read-out.

Test: 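Identify essential fly genes by loss of cell viability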 (primary screen)
Cells: Drosophila Kc and S2R+ cells
Reagents: long dsRNA against Drosophila genes
Read-out: 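Cell number per well after knock-down, printed as raw plate values; calls were based on per-plate z-scores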
Direction: Kc cell number and S2R+ cell number: higher = more cells remaining
Call rule: 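Counted as a hit if cell number falls by a z-score of at least 3 within its plate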

Kc cell number, rep 1	Kc cell number, rep 2	S2R+ cell number, rep 1	S2R+ cell number, rep 2	predicted target	PubChem SID
1.71e6	1.75e6	1.19e6	1.31e6	CG6885	SID104190532
6.22e5		9.02e5		MFS10 (Major Facilitator Superfamily Transporter 10)	SID104199680
1.68e6	1.65e6	1.15e6	1.24e6	mthl12 (methuselah-like 12)	SID104192756
1.45e6	1.30e6	9.53e5	1.23e6	CG17883	SID104187630
1.67e6	1.84e6	1.37e6	1.48e6	Porin2	SID104182376
1.18e6	1.40e6	3.41e5	3.11e5	eIF3h (eukaryotic translation initiation factor 3 subunit h)	SID104181787
1.76e6	1.74e6	1.38e6	1.38e6	CG5555	SID104195626
1.68e6	1.77e6	1.24e6	2.77e5	CG17349	SID104182402
1.47e6	1.48e6	1.05e6	1.14e6	pon (partner of numb)	SID104198615
1.39e6	1.49e6	1.07e6	1.11e6	CG3829	SID104184215
1.28e6	1.58e6	1.34e6	1.45e6	CG13031	SID104189703
1.46e6	1.41e6	1.07e6	1.32e6	CNMa (CNMamide)	SID104188197
1.85e6	1.93e6	1.19e6	1.30e6	CG3919	SID104190181
1.38e6 (active)	1.43e6	6.81e5	7.86e5	CG14712	SID104194727
1.64e6	1.60e6	1.04e6	1.22e6	CG8051	SID104199869
1.56e6	1.57e6	1.04e6	1.17e6	CG33992 (retired record) + CG43755	SID104179804
1.47e6	1.45e6	1.32e6	1.33e6	CG44153	SID104182020
1.45e6	1.57e6	1.22e6	1.36e6	CG44153	SID104182021
1.47e6	1.53e6	1.29e6	1.41e6	CG44153	SID104182694
1.56e6	1.69e6	1.20e6	1.40e6	CG44153	SID104182695
1.40e6	1.51e6	9.70e5	1.08e6	CG34375	SID104194476
1.44e6	1.40e6	9.62e5	1.02e6	CG34375	SID104194477
1.38e6	1.38e6	1.32e6	1.42e6	CG11373	SID104191962
1.49e6	1.54e6	1.08e6	1.27e6	CG15614	SID104186359
1.89e6	1.84e6	1.39e6	1.41e6	Ir93a (Ionotropic receptor 93a)	SID104195004
1.24e6	1.20e6	1.06e6	1.15e6	Ir93a (Ionotropic receptor 93a)	SID104195005
1.58e6	1.56e6	8.45e5	9.32e5	CkIalpha (Casein kinase Ialpha)	SID104200023
1.46e6	1.54e6	1.25e6	1.33e6	CG43775	SID104183998
1.60e6	1.58e6	1.24e6	1.15e6	MED24 (Mediator complex subunit 24)	SID104190736
1.38e6	1.36e6	9.66e5	1.12e6	Gr89a (Gustatory receptor 89a)	SID104194815
1.41e6	1.53e6	1.22e6	1.30e6	SLIRP2 (SRA stem-loop interacting RNA binding protein 2)	SID104196155
1.75e6	1.97e6	1.51e6	3.69e5	CG11275	SID104183887
1.62e6	1.64e6	9.34e5	1.21e6	CG33648	SID104181179
1.68e6	1.73e6	1.35e6	1.58e6	CG8366	SID104186945
1.52e6	1.62e6	1.31e6	5.09e5	Gar1 (Gar1 ribonucleoprotein)	SID104184233
1.12e6	1.42e6	1.13e6	1.20e6	rsh (radish)	SID104198758
8.87e5 (active)	9.18e5	5.47e5	6.20e5	rsh (radish)	SID104199608
1.26e6	1.34e6	1.24e6	1.10e6	kon (kon-tiki)	SID104181825
1.55e6	1.29e6	1.08e6	1.30e6	CG8851	SID104180510
1.35e6	1.47e6	1.05e6	1.17e6	CG31221	SID104194127
1.32e6	1.34e6	1.05e6	1.13e6	CG31221	SID104196009
6.03e5		8.55e5		CHOp24	SID104198102
1.50e6	1.52e6	1.04e6	1.14e6	bbx + waw	SID104200367
1.47e6	1.44e6	1.05e6	1.14e6	bbx + waw	SID104200381
1.59e6	1.55e6	1.35e6	1.33e6	mrn (marionette)	SID104190705
1.40e6	1.75e6	1.11e6	1.22e6	CG32642	SID104198751
1.39e6	1.59e6	1.04e6	1.19e6	Pex10 (Peroxin 10)	SID104188391
5.13e5		7.62e5		CG4645	SID104199699
1.33e6	1.40e6	1.22e6	1.23e6	dib (disembodied)	SID104188503
1.51e6	1.61e6	1.04e6	1.15e6	CG10435	SID104194038
1.41e6	1.51e6	1.22e6	1.40e6	Eig71Ea (Ecdysone-induced gene 71Ea)	SID104190940
1.54e6	1.60e6	1.18e6	1.27e6	Pvf1 (PDGF- and VEGF-related factor 1)	SID104199816
1.27e6	1.37e6	1.10e6	1.24e6	Det (Deterin)	SID104194281
1.79e6	1.81e6	1.07e6	1.18e6	CG31086 + CG31323	SID104194694
5.82e5 (active)	8.80e5	5.17e5	5.99e5	CG34165	SID104181762
1.25e6	1.30e6	1.16e6	1.15e6	CG9752	SID104184354
1.54e6	1.60e6	1.06e6	1.15e6	CG1513	SID104184986
1.55e6	1.53e6	1.27e6	1.28e6	CG1513	SID104186346
1.63e6	1.88e6	1.19e6	1.30e6	Gpo3 (Glycerophosphate oxidase 3)	SID104181770

An excerpt from above, limited to “S2R+ cell number, rep 2”:
eIF3h (eukaryotic translation initiation factor 3 subunit h) [SID104181787]	3.11e5
CG5555 [SID104195626]	1.38e6
CG17349 [SID104182402]	2.77e5
pon (partner of numb) [SID104198615]	1.14e6
CG3829 [SID104184215]	1.11e6
CG13031 [SID104189703]	1.45e6
CNMa (CNMamide) [SID104188197]	1.32e6
CG3919 [SID104190181]	1.30e6
CG14712 [SID104194727]	7.86e5 (active)
